This note sets out measurements from US8759520B2, “Compounds for treating cancer” (Boehringer Ingelheim International GmbH, priority 2008, dated 2014).

By UniProt entry, the sequences of proteins in these tests, tags left out.
UniProt P10415, whole entry: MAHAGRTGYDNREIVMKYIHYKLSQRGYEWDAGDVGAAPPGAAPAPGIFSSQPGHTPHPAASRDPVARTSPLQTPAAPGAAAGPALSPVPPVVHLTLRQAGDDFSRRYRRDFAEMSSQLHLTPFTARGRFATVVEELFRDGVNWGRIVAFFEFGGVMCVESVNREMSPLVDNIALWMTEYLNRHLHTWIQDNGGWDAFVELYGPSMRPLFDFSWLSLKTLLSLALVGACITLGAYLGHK

The match of structure and compound is tentative.

The target in the assay is Bcl-2 (Homo sapiens, UniProt P10415). Description: Homogeneous HTS assay for inhibitors of the Bcl-2 : Bak (72-87) BH3 domain interaction, fluorescence polarisation (2D-FIDA). The assay is classed as binding. The conditions noted are these: read-out: IC50 [μM] Bcl-2, fluorescent labelled Bak BH3 domain derived peptide. The text has this: FIG. 1 is a schematic drawing of the Bcl-2: Bak (72-87) interaction assay based on fluorescence polarisation.
The homogeneous HTS assay for inhibitors of the Bcl-2 is shown schematically in FIG. 1. BH3 domain interaction is based on fluorescence polarisation. The inherent rotational diffusion of the Bak BH3 domain derived fluorescent labelled peptide decreases upon binding to Bc1-2. This shift in rotational diffusion is quantitated using the two-dimensional fluorescence intensity distribution analysis (2D-FIDA; Kask et al. 2000, Biophys. J. 78: 1703-1713).
Two different BH3 domain derived peptide ligands were synthesised and subsequently fluorescently labelled: • a 16mer peptide covering amino acids 72-87 of the Bak protein; this peptide had been used by Wang and co-workers and Holinger and coworkers in their Bcl-2 protein binding studies; Wang and co-workers reported an equilibrium binding constant KD of ˜0.2 μM to Bcl-2 protein; • peptide sequence: GQVGRQLAIIGDDINR—N (Wang et al. 2002, Proc. Natl. Acad. Sci. U.S.A. 97: 7124-7129; Holinger et al. 1999, J. Biol. Chem. 274: 13298-13304).

For the compound `CC(C)(C)C(=O)Cn1c(=N)n(Cc2ccccc2)c2ccccc21`, the half-inhibitory concentration (IC50) is > 100 µM.
